No constants are given. Whether binding was seen depends on the method and setting. Binding seen in cells or lysates may run through a third protein. A result given as binding can be weak or reduced; the word gives no strength.
Columns and labels:
[1] = molecular target: TAP-tagged BACE1 (Homo sapiens (Human)); assay: TAP purification of tagged bait from SKNBE2 cells, LC-MS/MS
[2] = molecular target: TAP-tagged BACE1 (Homo sapiens (Human)); assay: TAP purification of tagged bait, LC-MS/MS; novel interactor
[3] = molecular target: TAP-tagged BACE1 (Homo sapiens (Human)); assay: TAP purification of tagged bait, LC-MS/MS; listed only under all interactors

B1: Delta-6 fatty acid desaturase (FADS2) (enzyme)
chain: MGKGGNQGEGAAEREVSVPTFSWEEIQKHNLRTDRWLVIDRKVYNITKWSIQHPGGQRVIGHYAGEDATDAFRAFHPDLEFVGKFLKPLLIGELAPEEPSQDHGKNSKITEDFRALRKTAEDMNLFKTNHVFFLLLLAHIIALESIAWFTVFYFGNGWIPTLITAFVLATSQAQAGWLQHDYGHLSVYRKPKWNHLVHKFVIGHLKGASANWWNHRHFQHHAKPNIFHKDPDVNMLHVFVLGEWQPIEYGKKKLKYLPYNHQHEYFFLIGPPLLIPMYFQYQIIMTMIVHKNWVDLAWAVSYYIRFFITYIPFYGILGALLFLNFIRFLESHWFVWVTQMNHIVMEIDQEAYRDWFSSQLTATCNVEQSFFNDWFSGHLNFQIEHHLFPTMPRHNLHKIAPLVKSLCAKHGIEYQEKPLLRALLDIIRSLKKSGKLWLDAYLHK
[1]
  binding: binds
[2]
  binding: binds

B2: Neurotrypsin (SEQ ID No:19) (enzyme)
chain: FDSVLNDSLHHSHRHSPPAGPHYPYYLPTQQRPPRTRPPPPLPRFPRPPRALPAQRPHALQAGHTPRPHPWGCPAGEPWVSVTDFGAPCLRWAEVPPFLERSPPASWAQLRGQRHNFCRSPDGAGRPWCFYGDARGKVDWGYCDCRHGSVRLRGGKNEFEGTVEVYASGVWGTVCSSHWDDSDASVICHQLQLGGKGIAKQTPFSGLGLIPIYWSNVRCRGDEENILLCEKDIWQGGVCPQKMAAAVTCSFSHGPTFPIIRLAGGSSVHEGRVELYHAGQWGTVCDDQWDDADAEVICRQLGLSGIAKAWHQAYFGEGSGPVMLDEVRCTGNELSIEQCPKSSWGEHNCGHKEDAGVSCTPLTDGVIRLAGGKGSHEGRLEVYYRGQWGTVCDDGWTELNTYVVCRQLGFKYGKQASANHFEESTGPIWLDDVSCSGKETRFLQCSRRQWGRHDCSHREDVSIACYPGGEGHRLSLGFPVRLMDGENKKEGRVEVFINGQWGTICDDGWTDKDAAVICRQLGYKGPARARTMAYFGEGKGPIHVDNVKCTGNERSLADCIKQDIGRHNCRHSEDAGVICDYFGKKASGNSNKESLSSVCGLRLLHRRQKRIIGGKNSLRGGWPWQVSLRLKSSHGDGRLLCGATLLSSCWVLTAAHCFKRYGNSTRSYAVRVGDYHTLVPEEFEEEIGVQQIVIHREYRPDRSDYDIALVRLQGPEEQCARFSSHVLPACLPLWRERPQKTASNCYITGWGDTGRAYSRTLQQAAIPLLPKRFCEERYKGRFTGRMLCAGNLHEHKRVDSCQGDSGGPLMCERPGESWVVYGVTSWGYGCGVKDSPGVYTKVSAFVPWIKSVTKL
[2]
  binding: binds

B3: PTK7 (SEQ ID No:44) (receptor)
chain: AIVFIKQPSSQDALQGRRALLRCEVEAPGPVHVYWLLDGAPVQDTERRFAQGSSLSFAAVDRLQDSGTFQCVARDDVTGEEARSANASFNIKWIEAGPVVLKHPASEAEIQPQTQVTLRCHIDGHPRPTYQWFRDGTPLSDGQSNHTVSSKERNLTLRPAGPEHSGLYSCCAHSAFGQACSSQNFTLSIADESFARVVLAPQDVVVARYEEAMFHCQFSAQPPPSLQWLFEDETPITNRSRPPHLRRATVFANGSLLLTQVRPRNAGIYRCIGQGQRGPPIILEATLHLAEIEDMPLFEPRVFTAGSEERVTCLPPKGLPEPSVWWEHAGVRLPTHGRVYQKGHELVLANIAESDAGVYTCHAANLAGQRRQDVNITVATVPSWLKKPQDSQLEEGKPGYLDCLTQATPKPTVVWYRNQMLISEDSRFEVFKNGTLRINSVEVYDGTWYRCMSSTPAGSIEAQARVQVLEKLKFTPPPQPQQCMEFDKEATVPCSATGREKPTIKWERADGSSLPEWVTDNAGTLHFARVTRDDAGNYTCIASNGPQGQIRAHVQLTVAVFITFKVEPERTTVYQGHTALLQCEAQGDPKPLIQWKGKDRILDPTKLGPRMHIFQNGSLVIHDVAPEDSGRYTCIAGNSCNIKHTEAPLYVVDKPVPEESEGPGSPPPYKMIQTIGLSVGAAVAYIIAVLGLMFYCKKRCKAKRLQKQPEGEEPEMECLNGGPLQNGQPSAEIQEEVALTSLGSGPAATNKRHSTSDKMHFPRSSLQPITTLGKSEFGEVFLAKAQGLEEGVAETLVLVKSLQSKDEQQQLDFRRELEMFGKLNHANVVRLLGLCREAEPHYMVLEYVDLGDLKQFLRISKSKDEKLKSQPLSTKQKVALCTQVALGMEHLSNNRFVHKDLAARNCLVSAQRQVKVSALGLSKDVYNSEYYHFRQAWVPLRWMSPEAILEGDFSTKSDVWAFGVLMWEVFTHGEMPHGGQADDEVLADLQAGKARLPQPEGCPSKLYRLMQRCWALSPKDRPSFSEIASALGDSTVDSKP
[2]
  binding: binds

B4: RetSDR2 (enzyme)
chain: ESFVKLFIPKRRKSVTGEIVLITGAGHGIGRLTAYEFAKLKSKLVLWDINKHGLEETAAKCKGLGAKVHTFVVDCSNREDIYSSAKKVKAEIGDVSILVNNAGVVYTSDLFATQDPQIEKTFEVNVLAHFWTTKAFLPAMTKNNHGHIVTVASAAGHVSVPFLLAYCSSKFAAVGFHKTLTDELAALQITGVKTTCLCPNFVNTGFIKNPSTSLGPTLEPEEVVNRLMHGILTEQKMIFIPSSIAFLTTLERILPERFLAVLKRKISVKFDAVIGYKMKAQ
[2]
  binding: binds

B5: TMP21 (protein)
chain: ISFHLPINSRKCLREEIHKDLLVTGAYEISDQSGGAGGLRSHLKITDSAGHILYSKEDATKGKFAFTTEDYDMFEVCFESKGTGRIPDQLVILDMKHGVEAKNYEEIAKVEKLKPLEVELRRLEDLSESIVNDFAYMKKREEEMRDTNESTNTRVLYFSIFSMFCLIGLATWQVFYLRRFFKAKKLIE
[3]
  binding: binds
